Results are given in words; binding and its absence hold for the method and conditions named. Binding seen in cells or lysates may run through a third protein. Some results given as binding are weak or reduced against the parent protein; the word gives no strength. Where a sequence is shown, tags or fusion partners need not be part of it. Each block holds one molecule with its values, some of them ahead of it.
How the values were obtained:
[1] = biological target: Myc-tagged wild type activin A receptor type IIA (UniProt P27037); test: co-IP; PC3-M cells transiently co-transfected; surface proteins crosslinked with 2 mM DTSSP before lysis (10 mM Tris HCl pH 7.4, 145 mM NaCl, 10% glycerol, 0.5% NP-40); IP with anti-FLAG or anti-Myc overnight at 4°C; crosslinker cleaved before Western blot
[2] = biological target: FLAG-tagged wild type bone morphogenetic protein receptor type II (UniProt Q13873); test: as above
[3] = biological target: T1, FLAG-tagged endoglin (UniProt P17813); test: as above
T1 sequence: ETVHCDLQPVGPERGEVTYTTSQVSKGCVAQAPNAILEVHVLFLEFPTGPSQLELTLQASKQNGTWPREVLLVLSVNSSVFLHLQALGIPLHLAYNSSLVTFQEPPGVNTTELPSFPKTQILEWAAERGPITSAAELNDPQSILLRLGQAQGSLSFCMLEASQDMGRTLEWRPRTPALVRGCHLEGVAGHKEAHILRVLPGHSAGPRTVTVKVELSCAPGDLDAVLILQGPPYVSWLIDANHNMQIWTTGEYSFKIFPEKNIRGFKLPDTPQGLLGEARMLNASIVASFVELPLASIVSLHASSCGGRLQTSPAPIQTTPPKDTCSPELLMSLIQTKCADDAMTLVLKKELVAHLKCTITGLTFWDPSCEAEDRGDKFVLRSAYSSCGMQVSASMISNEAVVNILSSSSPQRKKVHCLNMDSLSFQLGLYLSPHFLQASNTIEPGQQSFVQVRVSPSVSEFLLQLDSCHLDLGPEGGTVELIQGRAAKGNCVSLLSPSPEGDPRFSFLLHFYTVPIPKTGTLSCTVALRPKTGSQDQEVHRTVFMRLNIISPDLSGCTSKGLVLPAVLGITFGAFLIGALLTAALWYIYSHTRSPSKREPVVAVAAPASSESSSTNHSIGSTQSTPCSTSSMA

By UniProt entry, the sequences of proteins in these tests, tags left out. Residues count along the entry.
UniProt P27037, residues 20-513: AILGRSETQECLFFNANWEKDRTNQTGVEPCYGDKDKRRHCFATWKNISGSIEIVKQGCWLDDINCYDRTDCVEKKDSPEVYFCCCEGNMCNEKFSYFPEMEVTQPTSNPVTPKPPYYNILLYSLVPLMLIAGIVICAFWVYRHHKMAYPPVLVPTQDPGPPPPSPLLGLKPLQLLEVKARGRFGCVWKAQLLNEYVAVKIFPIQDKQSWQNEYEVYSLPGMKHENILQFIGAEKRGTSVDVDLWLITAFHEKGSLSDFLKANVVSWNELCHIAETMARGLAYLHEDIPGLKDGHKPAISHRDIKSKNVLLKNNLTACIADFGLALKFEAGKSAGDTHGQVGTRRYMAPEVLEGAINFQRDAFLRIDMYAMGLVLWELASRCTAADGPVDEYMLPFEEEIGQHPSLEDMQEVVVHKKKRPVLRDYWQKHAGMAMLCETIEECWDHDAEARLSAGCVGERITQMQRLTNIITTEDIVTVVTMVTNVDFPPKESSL
UniProt Q13873, residues 27-1038: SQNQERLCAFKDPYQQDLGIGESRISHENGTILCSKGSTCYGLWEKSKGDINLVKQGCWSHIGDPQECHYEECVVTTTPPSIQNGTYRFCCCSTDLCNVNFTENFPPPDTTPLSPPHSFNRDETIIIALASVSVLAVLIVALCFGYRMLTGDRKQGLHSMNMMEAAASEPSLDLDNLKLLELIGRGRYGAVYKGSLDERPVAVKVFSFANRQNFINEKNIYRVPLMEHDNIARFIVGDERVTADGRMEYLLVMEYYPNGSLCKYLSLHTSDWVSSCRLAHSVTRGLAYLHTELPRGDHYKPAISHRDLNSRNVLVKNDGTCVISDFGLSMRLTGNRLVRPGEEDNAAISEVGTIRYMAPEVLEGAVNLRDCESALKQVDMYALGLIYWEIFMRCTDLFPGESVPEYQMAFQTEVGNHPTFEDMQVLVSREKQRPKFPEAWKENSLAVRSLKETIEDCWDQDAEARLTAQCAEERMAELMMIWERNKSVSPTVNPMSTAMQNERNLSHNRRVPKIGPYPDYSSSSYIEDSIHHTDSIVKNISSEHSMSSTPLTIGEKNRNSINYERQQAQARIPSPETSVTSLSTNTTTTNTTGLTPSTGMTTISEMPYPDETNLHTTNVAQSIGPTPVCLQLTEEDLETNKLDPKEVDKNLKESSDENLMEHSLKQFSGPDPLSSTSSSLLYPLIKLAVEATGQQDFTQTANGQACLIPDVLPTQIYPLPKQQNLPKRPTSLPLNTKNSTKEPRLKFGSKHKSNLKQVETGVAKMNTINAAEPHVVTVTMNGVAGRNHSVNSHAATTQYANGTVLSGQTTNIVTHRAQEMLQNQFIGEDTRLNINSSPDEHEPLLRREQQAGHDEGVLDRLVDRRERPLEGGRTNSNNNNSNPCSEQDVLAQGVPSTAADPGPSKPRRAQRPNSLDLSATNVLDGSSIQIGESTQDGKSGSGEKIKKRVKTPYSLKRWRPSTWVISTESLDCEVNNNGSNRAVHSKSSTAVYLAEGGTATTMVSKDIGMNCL

[4] = biological target: FLAG-tagged wild type bone morphogenetic protein receptor type II (UniProt Q13873); test: condition: only without crosslinking of cell surface proteins; co-IP; as a1 but surface proteins of the PC3-M cells not crosslinked (-); FLAG-BMPRII immunoprecipitated, blot for endoglin

- binding [1]: binds
Molecule: FLAG-tagged wild type bone morphogenetic protein receptor type II (from UniProt Q13873 27-1038)

- binding [2]: binds
- binding [3]: binds
Molecule: Myc-tagged wild type activin A receptor type IIA (from UniProt P27037 20-513)

- binding [1]: binds
B1: FLAG-tagged endoglin (receptor, UniProt P17813 26-658)
chain: T1 sequence

- binding [2]: binds
- binding [4]: no binding
B2: untagged endoglin (receptor, UniProt P17813 26-658)
chain: T1 sequence

From publication PMC3742533
